Source: article PMC6445123 (Scientific Reports, 2019)
Certain results were filed several times, with different values. The other results are left out here. There may be further records. Values that stand side by side do not match, cause unknown; dose, time, organism, isomer or construct need not be as stated for each record.

Target: active Casp6 (Casp6-WT) (Homo sapiens, UniProt P55212, INS179NQTEKLDTNITEVD)
Experiment: Casp6-C163A cleavage assay (prodomain cleavage of catalytically inactive Casp6-C163A by active Casp6)
Settings: rate of Casp6-C163A prodomain cleavage vs DMSO control
Protocol: To assess the potency of in silico hits, a fluorescence-based Ac-VEID-AFC cleavage assay was used to measure recombinant active Casp6 reaction rate in the absence or presence of 100 µM concentration of compounds. A 30% inhibition cut off was arbitrarily chosen for further investigation of putative inhibitors. […] AFC signal interference by compound intrinsic fluorescence was ruled out (Fig. S4). Casp6 inhibition was confirmed for seven compounds (C7, C13, C14, S2, S10, S11 and S13) using a colorimetric Ac-VEID-pNA cleavage assay (Table 2, Fig. S3). […] The hits had IC50 values ranging from 13.2 µM to 289 µM (Table 2).
In fluorescence-based Casp6 activity assay, 10 µM Ac-VEID-AFC was added to 20 nM Casp6 in SB with 100 μM compound and 1% dimethyl sulfoxide (DMSO), and reaction rate was measured for 20 min at 37 °C as above. […] In colorimetric Casp6 activity assay, 200 µM Ac-VEID-pNA (N-acetyl-Val-Glu-Ile-Asp-p-nitroanilide, Enzo Life Sciences) was added to 200 nM Casp6 in SB with 100 μM compound, and Ac-VEID-pNA cleavage rate was measured at 37 °C for 30 min in clear 96-well plate (Sartstedt, Nümbrecht, Germany) using Synergy H4 plate reader at 405 nm. Absorbance was converted to the released pNA amount based on a standard curve of 0–250 µM pNA. Cleavage rates were calculated from the linear assay phase and were normalised to 1% DMSO control. […]

% Inhibition with 100 µM compound (Casp6-C163A cleavage assay): minimal inhibition and 6.3 ± 5.1%
Compound: O=C(CCN1C(=O)C(=Cc2ccccc2Cl)SC1=S)NC12CC3CC(CC(C3)C1)C2
